This is an account of results in the supplement of paper PMC8728848.

The other results are listed elsewhere or left out.

Holding throughout (assay): glycan array binding signal (z-score within array); higher = stronger binding
Holding throughout (settings): glycan notation: IUPAC condensed, linker removed

For test [1], the target named is Neu5Ac9Ac(a2-3)Gal(b1-4)GlcNAc. Summed up:
(§1)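 Columns mapping to the same glycan were averaged after glycan names were converted to IUPAC-condensed notation. The data come from 3228 arrays in the Consortium for Functional Glycomics database, limited to those with an available protein sequence. Binding is reported as a within-array Z-score averaged across arrays of one protein sequence and across linkers.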

For test [2], the target named is Neu5Ac9Ac(a2-6)Gal(b1-4)GlcNAc. Summed up:
as §1

The target in test [3] is Neu5Gc(a2-3)Gal(b1-3)GlcNAc. Put shortly: as §1
The target in test [4] is Neu5Gc(a2-3)Gal(b1-3)[Fuc(a1-4)]GlcNAc. Put shortly:
as §1

Test [5] addresses Neu5Gc(a2-3)Gal(b1-4)Glc. Summed up: as §1
For test [6], the target named is Neu5Gc(a2-3)Gal(b1-4)GlcNAc. Summed up:
as §1

Test [7] deals with Neu5Gc(a2-3)Gal(b1-4)[Fuc(a1-3)]GlcNAc. Summed up: as §1
Test [8] has as its target Neu5Gc(a2-6)Gal(b1-4)GlcNAc. Put shortly:
as §1

Test [9] has as its target Neu5Gc(a2-6)GalNAc. Put shortly:
as §1

Test [10] concerns the target Neu5Gc(b2-6)Gal(b1-4)GlcNAc. Summed up:
as §1

B1: CD72 ectodomain (Homo sapiens), P21854 (protein)
chain: RYLQVSQQLQQTNRVLEVTNSSLRQQLRLKITQLGQSAEDLQGSRRELAQSQEALQVEQRAHQAAEGQLQACQADRQKTKETLQSEEQQRRALEQKLSNMENRLKPFFTCGSADTCCPSGWIMHQKSCFYISLTSKNWQESQKQCETLSSKLATFSEIYPQSHSYYFLNSLLPNGGSGNSYWTGLSSNKDWKLTDDTQRTRTYAQSSKCNKVHKTWSWWTLESESCRSSLPYICEMTAFRFPD
Take B1: the “glycan array binding signal (z-score)” value is -0.525 in test [1]; 0.69 in [2]; -0.864 in test [3]; 0.943 in test [4]; -0.431 in test [5]; 0.844 in test [6]. Further, the “glycan array binding signal (z-score)” value is -0.217 in test [7], 0.368 in test [8], -0.685 in test [9] and -1.35 in test [10].
